PMC11395566, “Novel Copper (II) Complexes with Fluorine-Containing Reduced Schiff Base Ligands Showing Marked Cytotoxicity in the HepG2 Cancer Cell Line” (International Journal of Molecular Sciences, 2024)
Converted amounts (≈) assume the structure as drawn.

Legend:
[1] = test system: E. coli CNCTC 377/79; experiment: Antimicrobial activity, broth dilution method; type: cell-based; conditions: Escherichia coli, CNCTC377/79; 24 h, 37 °C
Experimental: (§1) The antimicrobial activities of the synthesized copper (II) complexes were evaluated against E. coli CNCTC 377/79 (Gram-negative bacterium), S. aureus CNCTC Mau 29/58 (Gram-positive bacterium), and the yeast C. albicans CCM 8186. Bacterial strains were obtained from the Czech National Collection of Type Cultures (National Institute of Public Health, Prague, Czech Republic) and the yeast was purchased from the Czech Collection of Microorganisms (Masaryk University, Brno, Czech Republic). Bacteria were grown aerobically in nutrient broth (IMUNA PHARM, Šarišské Michaľany, Slovakia) and the yeast in BD Difco Sabouraud dextrose broth (Becton, Dickinson and Company, Franklin Lakes, NJ, USA) for 18 h at 37 °C or 48 h at 24 °C, respectively. Cultures were then maintained at 4 °C on appropriate solid medium: Endo agar (Oxoid Ltd., Basingstoke, UK) for E. coli, blood agar (Biomark Laboratories, Pune, India) for S. aureus, and BD Sabouraud dextrose agar (Becton, Dickinson and Company, Franklin Lakes, NJ, USA) for C. albicans. Working cultures were prepared by the incubation of a single colony of each microorganism in NB (bacteria) or SDB (yeast) for 18 h at 37 °C or 48 h at 24 °C, respectively. […]
(§2) Antimicrobial activity was determined using the broth dilution method as described in [7]. […]

[2] = test system: S. aureus CNCTC Mau 29/58; experiment: Antimicrobial activity, broth dilution method; type: cell-based; conditions: Staphylococcus aureus; 24 h, 37 °C
Experimental: as §1, §2

- MIC [1]: < 0.3 µM
- MIC [2]: 0.68 µM (≈ 0.225 µg/mL)
Structure (SMILES): O=C(O)c1cn(C2CC2)c2cc(N3CCNCC3)c(F)cc2c1=O [cpx, ciprofloxacine, reference compound]
